PubChem BioAssay AID1508597 | Cure First – 2020

- Test: 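Knock-downs altering ovarian cancer cell survival with or without PARP inhibitor rucaparib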 (primary screen)
- Cell system: human ovarian carcinoma lines grown from tumours: OCI-P5x (papillary serous) and OCI-C5x (clear cell)
- Reagents: siRNA pool against human genes, 1.25 pmol siRNA per well
- Time to read-out: 72 h or 96 h, depending on the cell culture
- Challenge: rucaparib 20 µM (about IC30) or vehicle, present until read-out
- Rucaparib or vehicle: Vehicle
- Cell line: OCI-P5x (serous)
- Measurement: 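Luminescent ATP-based viability assay read 72 or 96 h after transfection, depending on culture, given as normalised percent viability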
- Scale: viability, normalised: higher = more viable cells remaining
- Rule for the call: 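a well counts as a hit if its normalised viability is under 80 percent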
- Meaning of the calls: active = viability under 80%; inactive = viability 80% or more
Shown is an unselected part of the about 2,100 reagents, in one setting of the screen. 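Calls flag viability under 80% in either arm, not effects specific to rucaparib; the reference for percent is not stated.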 Some reagents were tested in more than one well and are listed for each. Not stated in the record: the 100% reference.

{"Gene": "MAP3K10", "technical replicate": "1", "viability, normalised (%)": 109, "Call": "inactive"}
{"Gene": "MAP3K10", "technical replicate": "2", "viability, normalised (%)": 91.3, "Call": "inactive"}
{"Gene": "MAP3K10", "technical replicate": "3", "viability, normalised (%)": 104, "Call": "inactive"}
{"Gene": "DLG5", "technical replicate": "1", "viability, normalised (%)": 70, "Call": "active"}
{"Gene": "DLG5", "technical replicate": "2", "viability, normalised (%)": 71, "Call": "active"}
{"Gene": "DLG5", "technical replicate": "3", "viability, normalised (%)": 65.6, "Call": "active"}
{"Gene": "RECQL", "technical replicate": "1", "viability, normalised (%)": 76, "Call": "active"}
{"Gene": "RECQL", "technical replicate": "1", "viability, normalised (%)": 67.7, "Call": "active"}
{"Gene": "RECQL", "technical replicate": "2", "viability, normalised (%)": 62.5, "Call": "active"}
{"Gene": "RECQL", "technical replicate": "2", "viability, normalised (%)": 59, "Call": "active"}
{"Gene": "RECQL", "technical replicate": "3", "viability, normalised (%)": 74.5, "Call": "active"}
{"Gene": "RECQL", "technical replicate": "3", "viability, normalised (%)": 83.3, "Call": "inactive"}
{"Gene": "NTRK1", "technical replicate": "1", "viability, normalised (%)": 61.6, "Call": "active"}
{"Gene": "NTRK1", "technical replicate": "1", "viability, normalised (%)": 96, "Call": "inactive"}
{"Gene": "NTRK1", "technical replicate": "1", "viability, normalised (%)": 59.1, "Call": "active"}
{"Gene": "NTRK1", "technical replicate": "2", "viability, normalised (%)": 49.1, "Call": "active"}
{"Gene": "NTRK1", "technical replicate": "2", "viability, normalised (%)": 74.5, "Call": "active"}
{"Gene": "NTRK1", "technical replicate": "2", "viability, normalised (%)": 81.5, "Call": "inactive"}
{"Gene": "NTRK1", "technical replicate": "3", "viability, normalised (%)": 76.1, "Call": "active"}
{"Gene": "NTRK1", "technical replicate": "3", "viability, normalised (%)": 93.5, "Call": "inactive"}
{"Gene": "NTRK1", "technical replicate": "3", "viability, normalised (%)": 75.1, "Call": "active"}
{"Gene": "SMYD4", "technical replicate": "1", "viability, normalised (%)": 42.4, "Call": "active"}
{"Gene": "SMYD4", "technical replicate": "2", "viability, normalised (%)": 36.2, "Call": "active"}
{"Gene": "SMYD4", "technical replicate": "3", "viability, normalised (%)": 45.5, "Call": "active"}
{"Gene": "GLRA2", "technical replicate": "1", "viability, normalised (%)": 66.9, "Call": "active"}
{"Gene": "GLRA2", "technical replicate": "2", "viability, normalised (%)": 69, "Call": "active"}
{"Gene": "GLRA2", "technical replicate": "3", "viability, normalised (%)": 76.9, "Call": "active"}
{"Gene": "RIPK1", "technical replicate": "1", "viability, normalised (%)": 54.5, "Call": "active"}
{"Gene": "RIPK1", "technical replicate": "2", "viability, normalised (%)": 81.5, "Call": "inactive"}
{"Gene": "RIPK1", "technical replicate": "3", "viability, normalised (%)": 77.1, "Call": "active"}
{"Gene": "RNF8", "technical replicate": "1", "viability, normalised (%)": 61.9, "Call": "active"}
{"Gene": "RNF8", "technical replicate": "1", "viability, normalised (%)": 39.2, "Call": "active"}
{"Gene": "RNF8", "technical replicate": "2", "viability, normalised (%)": 46.6, "Call": "active"}
{"Gene": "RNF8", "technical replicate": "2", "viability, normalised (%)": 54.4, "Call": "active"}
{"Gene": "RNF8", "technical replicate": "3", "viability, normalised (%)": 55.1, "Call": "active"}
{"Gene": "RNF8", "technical replicate": "3", "viability, normalised (%)": 68.5, "Call": "active"}
{"Gene": "TWF2", "technical replicate": "1", "viability, normalised (%)": 81.9, "Call": "inactive"}
{"Gene": "TWF2", "technical replicate": "2", "viability, normalised (%)": 67.8, "Call": "active"}
{"Gene": "TWF2", "technical replicate": "3", "viability, normalised (%)": 77.2, "Call": "active"}
{"Gene": "TDRD10", "technical replicate": "1", "viability, normalised (%)": 70.4, "Call": "active"}
{"Gene": "TDRD10", "technical replicate": "2", "viability, normalised (%)": 78.7, "Call": "active"}
{"Gene": "TDRD10", "technical replicate": "3", "viability, normalised (%)": 85.5, "Call": "inactive"}
